# Measured values from US11266686B2, “Metal complexes and methods of treatment” (PROCYPRA THERAPEUTICS LLC, priority 2013, dated 2022).
# Some entries share one result that the patent states for a list of compounds. For at least one compound, name, drawing or mass did not settle the structure.
# Test: Pharmacokinetics in mice after oral administration, plasma and brain by LC/MS/MS
# Conditions: mouse plasma, 30 mg/kg oral
# Description: CuATSM was suspended in “Standard Suspension Vehicle” (SSV), consisting of 0.9% (w/v) NaCl, 0.5% (w/v) sodium carboxymethylcellulose, 0.5% (v/v) benzyl alcohol, and 0.4% (v/v) Tween 80 in deionized water. All other test compounds were suspended in sterile water. Samples were prepared by adding one of the compounds to the liquid vehicle (water or SSV) in a vial and then vortexing the mixture for 3 min with a stir bar inside. If the powdered sample was not completely wetted or not completely suspended, the sample was vortexed for another minute. If wetting was still incomplete, the vial was sonicated until a fully wetted suspension was obtained. Between doses, the sample was stirred on medium speed and then vortexed for an additional 20 s immediately before the next dose was removed from the vial. All dosing was completed from a single preparation of the suspension within 60 min of adding the compound to water or SSV. […]
# The pharmacokinetic parameters for study compounds in plasma and brain were calculated using standard non-compartmental methods. The elimination phase half-life (t½) was calculated by least-squares regression analysis of the terminal linear part of the log concentration-time curve. […] Mean Residence Time, MRT, and elimination rate constant, Ke, were also calculated from the concentration vs. time data of plasma samples.
structure (smiles),measurement,value
"CNC1=NN=C(C)C(C)=NN=C(NC)[S][Cu][S]1 [CuATSM, Copper(II) diacetyl-di(N4-methyl)thiosemicarbazone, reference compound]",plasma AUC relative to the AUC-values of CuATSM:gluconic acid (1:2) and CuATSM:saccharin (1:2),less than 50%
